Results taken from publication PMC8538223.
No constants are given. Whether binding was seen depends on the method and setting. Binding seen in cells or lysates may run through a third protein. Some binding calls cover weakened binding; strength is not graded here.

Protein sequences, listed by entry. Tags and fused reporters are not part of them.
UniProt O89090: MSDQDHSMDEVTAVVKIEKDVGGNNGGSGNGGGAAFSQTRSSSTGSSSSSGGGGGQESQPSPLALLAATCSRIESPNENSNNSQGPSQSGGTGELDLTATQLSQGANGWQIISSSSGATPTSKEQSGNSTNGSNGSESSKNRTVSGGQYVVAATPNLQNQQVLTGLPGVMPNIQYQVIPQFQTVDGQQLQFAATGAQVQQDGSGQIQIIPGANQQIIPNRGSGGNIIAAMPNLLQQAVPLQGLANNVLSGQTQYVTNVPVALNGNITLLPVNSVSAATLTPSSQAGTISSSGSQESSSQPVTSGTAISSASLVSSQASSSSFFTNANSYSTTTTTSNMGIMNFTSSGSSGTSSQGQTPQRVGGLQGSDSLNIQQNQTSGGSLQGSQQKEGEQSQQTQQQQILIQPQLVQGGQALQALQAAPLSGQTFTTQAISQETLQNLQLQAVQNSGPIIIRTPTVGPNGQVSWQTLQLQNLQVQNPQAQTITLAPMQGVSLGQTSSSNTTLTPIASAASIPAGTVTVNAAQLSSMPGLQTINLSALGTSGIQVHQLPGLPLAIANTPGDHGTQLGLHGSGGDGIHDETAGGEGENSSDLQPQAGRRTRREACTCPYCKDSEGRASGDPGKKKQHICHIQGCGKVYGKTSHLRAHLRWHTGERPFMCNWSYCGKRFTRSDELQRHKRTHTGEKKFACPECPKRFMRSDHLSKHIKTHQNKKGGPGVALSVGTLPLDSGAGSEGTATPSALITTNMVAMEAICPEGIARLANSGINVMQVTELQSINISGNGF

Legend:
[1] = molecular target: Phosphorylated specificity protein 1 (pSp1) (mouse (endogenous in primary cortical astrocytes)) (UniProt O89090); assay: co-IP; endogenous proteins; RIPA lysate (1 mg protein, pre-cleared with Pansorbin) of primary mouse cortical astrocytes, control or treated with 5 mM NH4Cl for 24 h; antibody overnight at 4 °C, protein-G agarose; by the listed controls immunoprecipitation with Sp1 or pSp1 antibody and Western blot for …
[2] = molecular target: Specificity protein 1 (Sp1) transcription factor (mouse (endogenous in primary cortical astrocytes)) (UniProt O89090); assay: as above

binding [1]: binds | binding [2]: binds
B1: Nuclear factor erythroid-related 2-like 2 (Nrf2) transcription factor (protein, UniProt Q60795 1-597)
chain: MMDLELPPPGLQSQQDMDLIDILWRQDIDLGVSREVFDFSQRQKDYELEKQKKLEKERQEQLQKEQEKAFFAQFQLDEETGEFLPIQPAQHIQTDTSGSASYSQVAHIPKQDALYFEDCMQLLAETFPFVDDHESLALDIPSHAESSVFTAPHQAQSLNSSLEAAMTDLSSIEQDMEQVWQELFSIPELQCLNTENKQLADTTAVPSPEATLTEMDSNYHFYSSISSLEKEVGNCGPHFLHGFEDSFSSILSTDDASQLTSLDSNPTLNTDFGDEFYSAFIAEPSDGGSMPSSAAISQSLSELLDGTIEGCDLSLCKAFNPKHAEGTMEFNDSDSGISLNTSPSRASPEHSVESSIYGDPPPGFSDSEMEELDSAPGSVKQNGPKAQPAHSPGDTVQPLSPAQGHSAPMRESQCENTTKKEVPVSPGHQKAPFTKDKHSSRLEAHLTRDELRAKALHIPFPVEKIINLPVDDFNEMMSKEQFNEAQLALIRDIRRRGKNKVAAQNCRKRKLENIVELEQDLGHLKDEREKLLREKGENDRNLHLLKRRLSTLYLEVFSMLRDEDGKPYSPSEYSLQQTRDGNVFLVPKSKKPDTKKN
